This is one part of the list. Further columns of the screen follow, without active or inactive calls. Compounds called inactive in the main read-out are mostly missing here. The note in brackets gives the kind of curve behind each potency; many fits are weak.
Assay: qHTS Assay for Lipid Storage Modulators in Drosophila S3 Cells;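 for cell number change: cells counted by Cell Tracker Red CMTPX staining in the red channel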
Settings: BODIPY lipid droplet fluorescence, 18-24 h; for cell number change: measured here: cell count max response, cells fed with added oleic acid
In short: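 Drosophila S3 cells loaded with oleic acid (400 uM, as added) and compounds at several concentrations; lipid droplets imaged by 488-nm laser-scanning cytometry, 500–530 nm intensity and object ratio to cell channel. Percent activity normalized to 20 uM Triacsin C.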

[1] = measured here: lipid fluorescence (Fed channel) AC50, cells fed with added oleic acid
[2] = measured here: cell number channel AC50, cells fed with added oleic acid

Row | Compound | cell number change | AC50 [1] | AC50 [2]
1 | CCN(CC)CC(=O)Nc1ccc([N+](=O)[O-])cc1 | -18.2% | 4.61 µM [falling, single point] | 
2 | Cc1ccc(NC(=O)Cn2c(=O)cnc3ccccc32)cc1S(=O)(=O)N1CCOCC1 | 41.5% |  | 25.9 µM [rising, partial curve, poor fit]
3 | CC(C)C(NS(=O)(=O)c1cccs1)C(=O)Nc1nc(C(C)(C)C)cs1 (stereo unspecified) | -6.03% |  | 
4 | COc1ccc2c(c1)C(NS(=O)(=O)OCC(Cl)(Cl)Cl)CCC2 (stereo unspecified) | 7.78% |  | 
5 | c1cncc(-c2nnc(SCc3nc4ccccc4[nH]3)o2)c1 |  | 0.13 µM [rising, full curve, poor fit] | 0.13 µM [rising, full curve, poor fit]
6 | COC(=O)c1cccc(NC(=O)CSc2nnc(COc3ccc(C#N)cc3)n2-c2ccccc2)c1 | 31.2% |  | 20.6 µM [rising, single point]
7 | Cc1c(C(=O)N2CCC(C)CC2)oc2ccc(S(=O)(=O)N3CCC4(CC3)OCCO4)cc12 | 23.2% | 0.116 µM [falling, full curve, poor fit] | 
8 | COc1ccc(N(Cc2cc(=O)[nH]c3ccccc23)C(=O)CCl)cc1 | -2.05% | 32.6 µM [falling, single point] | 
9 | CC(=O)N(CN1C(=O)C2C3C=CC(C3)C2C1=O)c1cccc(Cl)c1 (stereo unspecified) | 17.5% | 23.1 µM [rising, single point] | 
10 | O=C(O)CC1S/C(=N/N=C/C2CC=CCC2)NC1=O (stereo unspecified) | -35.3% | 14.6 µM [falling, partial curve] | 0.82 µM [falling, full curve]
11 | CC(=O)c1cccc(NC(=O)c2cc(S(=O)(=O)N3CCOCC3)cs2)c1 | -45.6% | 11.6 µM [falling, partial curve] | 1.84 µM [falling, partial curve]
12 | COc1cc(/C=C/C(=O)/C=C(O)/C=C/c2ccc(O)c(OC)c2)ccc1O | -64.3% | 20.6 µM [falling, single point] | 14.6 µM [falling, partial curve]
13 | CS(=O)(=O)N1CCN(c2ccc([N+](=O)[O-])cc2C(F)(F)F)CC1 | 22.6% |  | 
14 | COc1ccccc1NC(=O)C(C)N1CCN(C/C=C/c2ccccc2)CC1 (stereo unspecified) | -18.3% |  | 
15 | O=C(COc1ccc(-n2cnnn2)cc1)NC(=O)NCc1ccccc1 | 5.45% | 2.31 µM [rising, partial curve] | 
16 | Nc1ccc(S(=O)(=O)Nc2nc3ccccc3o2)cc1 | 8.5% | 16.4 µM [rising, partial curve, poor fit] | 
17 | CCOC(=O)C1CCCN(c2c(N3CCC(N4CCCCC4)CC3)c(=O)c2=O)C1 (stereo unspecified) | 12.9% | 29.1 µM [rising, partial curve, poor fit] | 
18 | Cc1ccc(NC(=O)CCC(=O)NNC(=O)Cc2ccccc2)cc1C | 30.2% |  | 29.1 µM [rising, single point]
19 | Cc1ccc(S(=O)(=O)N2CCCCC2C(=O)N2CCN(c3ccccc3F)CC2)cc1 (stereo unspecified) | -4.28% | 6.51 µM [rising, single point] | 
20 | Cc1cccc(NC(=O)Nc2cnccn2)c1 | 9.2% | 6.51 µM [rising, single point] | 

Row | Compound | cell number change | AC50 [1] | AC50 [2]
21 | O=C(Oc1ccc(-c2csnn2)cc1)c1cccs1 | -34.4% | 8.2 µM [falling, partial curve] | 18.4 µM [falling, single point]
22 | Cc1cc(-c2n[nH]c(=S)n2/N=C/c2ccc(Cl)c([N+](=O)[O-])c2)n[nH]1 | 6.58% | 29.1 µM [rising, single point] | 
23 | CCCCCCCC1=CC2=CC(=O)C(C)(OC(C)=O)C(=O)C2=CN1CCc1ccccc1 (stereo unspecified) | 20.5% | 16.4 µM [rising, single point] | 
24 | COc1ccc(OC)c(CCNC(=O)c2nn(C)c3c2CS(=O)(=O)c2ccccc2-3)c1 | -6.93% | 29.1 µM [falling, single point] | 
25 | O=C(CSc1ccc(Cl)cc1)NC(=O)NC1CCCC1 | 195% | 18.4 µM [rising, partial curve] | 29.1 µM [rising, partial curve]
26 | COc1ccc(C2NCCC3(O)CCCCC23)c(OC)c1OC (stereo unspecified) | 8.14% | 23.1 µM [falling, single point] | 
27 | COc1ccc(NC2CCCN(C(=O)c3ccc(OC)cc3OC)C2)cc1 (stereo unspecified) | 4.95% | 0.651 µM [falling, partial curve, poor fit] | 
28 | Cc1[nH]c(-c2ccccn2)nc(=S)c1Cl | -25.9% |  | 
29 | CCOC(=O)c1cc2c(N)c(C(=O)c3ccc(Br)cc3)sc2[nH]c1=O | 0.955% | 6.51 µM [falling, single point] | 
30 | COc1ccc(/C=C(/NC(=O)c2ccccc2)C(=O)N2CCCCC2)cc1OC | -53.7% | 11.6 µM [rising, single point] | 16.4 µM [falling, partial curve, poor fit]
31 | O=C(NCCS(=O)(=O)N1CCN(c2cccc(Cl)c2)CC1)c1ccc2c(c1)OCO2 | -22.5% | 0.184 µM [falling, full curve, poor fit] | 
32 | Cc1cc(C)nc(/N=C2\NC(=O)CC(C(=O)O)N2c2ccc(Oc3ccccc3)cc2)n1 (stereo unspecified) | 2.49% | 14.6 µM [rising, single point] | 
33 | CCOC(=S)SCC(=O)Nc1nc(C)c(C)s1 | -23.9% | 23.1 µM [falling, partial curve] | 
34 | O=c1oc2ccccc2c(NC2CCCCC2)c1NS(=O)(=O)c1ccc(F)c(Cl)c1 | -20.4% |  | 4.11 µM [falling, full curve, poor fit]
35 | O=C(NCC1(N2CCOCC2)CCCCC1)c1ccc(S(=O)(=O)Nc2ccccc2F)cc1 | -45.1% | 0.731 µM [falling, full curve] | 1.16 µM [falling, full curve]
36 | Cc1cccc(CSCCNC(=S)Nc2ccccc2)c1 | 1.47% | 16.4 µM [rising, single point] | 
37 | O=C1CC(c2ccccc2)CC(O)=C1C=NCc1ccncc1 (stereo unspecified) | -36.8% | 18.4 µM [falling, single point] | 29.1 µM [falling, single point]
38 | S=c1[nH]nc(-c2cc(-c3ccccc3)n[nH]2)n1/N=C/c1ccc(Cl)c(Cl)c1 | -48.6% | 20.6 µM [falling, single point] | 29.1 µM [falling, partial curve]
39 | Cc1ccc(S(=O)(=O)N(CC(=O)O)c2ccc(Cl)c(C(F)(F)F)c2)cc1 | -39.5% | 29.1 µM [falling, single point] | 29.1 µM [falling, single point]
40 | COC(=O)c1cccc(OCC(O)Cn2cnc3cc(C)c(C)cc32)c1 (stereo unspecified) | -19.5% |  | 

A stretch of the results above, for reference:
Row | Compound | cell number change | AC50 [1] | AC50 [2]
1 | CCN(CC)CC(=O)Nc1ccc([N+](=O)[O-])cc1 | -18.2% | 4.61 µM [falling, single point] | 
2 | Cc1ccc(NC(=O)Cn2c(=O)cnc3ccccc32)cc1S(=O)(=O)N1CCOCC1 | 41.5% |  | 25.9 µM [rising, partial curve, poor fit]

Following part.

Row | Compound | cell number change | AC50 [1] | AC50 [2]
41 | O=C(Nc1sc2c(c1C(=O)O)CCCCC2)c1cccnc1 | 5.26% |  | 
42 | Cc1c(Cl)cccc1-n1nnnc1-c1cccs1 |  | 0.461 µM [rising, full curve] | 
43 | CCOC(=O)C1CCCN(C(=O)c2cn(CC)c(=O)c3cc(OC)c(OC)cc23)C1 (stereo unspecified) | -6.02% |  | 
44 | Cc1ccc2c(c1)N(CC(=O)NCc1cccs1)C(=O)CO2 | 29.1% | 18.4 µM [rising, single point] | 
45 | COc1ccc(-n2nc3c(N4CCC(C(=O)NCc5ccccc5)CC4)nnc(C)c3c2C)cc1 | 23.9% | 0.58 µM [rising, single point] | 
46 | O=C(Nc1nc2c(Cl)cccc2s1)c1ccc([N+](=O)[O-])o1 |  | 4.11 µM [falling, full curve] | 
47 | CCN1CCCC1CNC(=O)C1c2cc(OC)c(OC)cc2C(=O)N(C)C1c1cccnc1 (stereo unspecified) | -12.7% |  | 
48 | O=C(CCN1C(=O)/C(=C\c2cccc(Br)c2)SC1=S)N1CCOCC1 | 29.1% | 32.6 µM [rising, single point] | 
49 | CCCCCCSc1cccc(-c2nc3cc(C)ccn3c2NCc2ccccc2)c1 | -2.4% |  | 
50 | O=C(c1cc(COc2ccc(F)cc2Cl)on1)N(CCO)Cc1cccs1 | -2.27% | 18.4 µM [rising, partial curve] | 
51 | CCOc1ccc(S(=O)(=O)Nc2nc3ccccc3nc2Cl)cc1 | -6.38% |  | 
52 | O=C(NNC(=O)c1ccncc1)Nc1cccc([N+](=O)[O-])c1 | -8.3% |  | 
53 | COc1ccc(NC(=O)c2cc([N+](=O)[O-])ccc2N2CCN(C)CC2)cc1 | -9.55% |  | 0.00461 µM [falling, full curve, poor fit]
54 | CC(=O)NC(c1ccco1)c1cc(F)c2cccnc2c1O (stereo unspecified) | -0.225% | 14.6 µM [falling, partial curve] | 
55 | Cc1cc(C)cc(NC(=S)NCc2ccc3[nH]c4c(c3c2)CCCC4)c1 | -48.8% | 0.326 µM [rising, partial curve, poor fit] | 18.4 µM [falling, partial curve, poor fit]
56 | COc1ccc(CCN(C)C(=O)c2ccc(C)c(S(=O)(=O)N3CCCCC3)c2)cc1OC | 8.21% | 29.1 µM [falling, single point] | 
57 | O=C(Cn1cnc2scc(-c3ccccc3)c2c1=O)N1CCOCC1 | -14.2% | 0.82 µM [rising, partial curve] | 0.326 µM [rising, full curve, poor fit]
58 | O=C(CN1CCCC1)Nc1ccccc1Cl | -106% |  | 20.6 µM [falling, partial curve, poor fit]
59 | O=C(CN1CCCC1)N1c2ccccc2Sc2ccc(Cl)cc21 | -19.3% | 0.146 µM [rising, full curve, poor fit] | 

From PubChem BioAssay AID2685 (National Center for Advancing Translational Sciences (NCATS), 2010)
